Results from the supplement of paper PMC12823440, “Inhibitors supercharge kinase turnover through native proteolytic circuits” (Nature, 2025).
Structures can show the parent of a compound that is named as a salt. This is one part of the list. The calls rarely recur for the same compound in another form.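 In K562 cells expressing nanoluciferase-fused kinases, luminescence was recorded at 4 h intervals between 2 and 18 h, normalized as percent of control with DMSO at 100% and a positive control at 0%. A significant (2 sigma) signal drop marks a time point as decreased. The authors' rule for a hit is not shown and takes in more than the number of time points.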

Amino acid sequences for entries named in this document (tags omitted).
UniProt P29317, whole entry: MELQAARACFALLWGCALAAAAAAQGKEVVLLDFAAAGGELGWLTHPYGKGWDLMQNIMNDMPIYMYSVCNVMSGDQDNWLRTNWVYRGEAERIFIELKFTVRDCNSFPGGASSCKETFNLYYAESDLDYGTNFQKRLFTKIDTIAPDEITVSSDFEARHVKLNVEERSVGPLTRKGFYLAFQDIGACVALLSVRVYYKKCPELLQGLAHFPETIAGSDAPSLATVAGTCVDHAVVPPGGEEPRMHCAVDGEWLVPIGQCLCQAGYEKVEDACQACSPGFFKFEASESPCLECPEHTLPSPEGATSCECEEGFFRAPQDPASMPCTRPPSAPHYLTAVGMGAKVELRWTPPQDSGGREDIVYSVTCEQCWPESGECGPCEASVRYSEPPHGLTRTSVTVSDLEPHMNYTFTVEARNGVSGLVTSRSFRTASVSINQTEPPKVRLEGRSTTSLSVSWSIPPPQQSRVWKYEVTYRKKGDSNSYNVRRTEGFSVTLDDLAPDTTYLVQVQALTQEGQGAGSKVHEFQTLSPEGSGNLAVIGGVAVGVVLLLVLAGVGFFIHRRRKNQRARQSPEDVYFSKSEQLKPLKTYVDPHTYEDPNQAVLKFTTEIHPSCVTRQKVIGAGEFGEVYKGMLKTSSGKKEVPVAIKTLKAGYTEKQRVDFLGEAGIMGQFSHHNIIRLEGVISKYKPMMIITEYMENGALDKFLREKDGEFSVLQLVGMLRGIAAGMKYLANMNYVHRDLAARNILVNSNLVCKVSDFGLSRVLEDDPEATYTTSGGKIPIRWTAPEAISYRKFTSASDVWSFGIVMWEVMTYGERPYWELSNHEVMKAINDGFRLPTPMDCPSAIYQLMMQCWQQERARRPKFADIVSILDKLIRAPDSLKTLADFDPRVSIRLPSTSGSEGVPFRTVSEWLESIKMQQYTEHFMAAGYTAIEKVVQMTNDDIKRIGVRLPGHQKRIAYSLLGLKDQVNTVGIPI
UniProt P21860, whole entry: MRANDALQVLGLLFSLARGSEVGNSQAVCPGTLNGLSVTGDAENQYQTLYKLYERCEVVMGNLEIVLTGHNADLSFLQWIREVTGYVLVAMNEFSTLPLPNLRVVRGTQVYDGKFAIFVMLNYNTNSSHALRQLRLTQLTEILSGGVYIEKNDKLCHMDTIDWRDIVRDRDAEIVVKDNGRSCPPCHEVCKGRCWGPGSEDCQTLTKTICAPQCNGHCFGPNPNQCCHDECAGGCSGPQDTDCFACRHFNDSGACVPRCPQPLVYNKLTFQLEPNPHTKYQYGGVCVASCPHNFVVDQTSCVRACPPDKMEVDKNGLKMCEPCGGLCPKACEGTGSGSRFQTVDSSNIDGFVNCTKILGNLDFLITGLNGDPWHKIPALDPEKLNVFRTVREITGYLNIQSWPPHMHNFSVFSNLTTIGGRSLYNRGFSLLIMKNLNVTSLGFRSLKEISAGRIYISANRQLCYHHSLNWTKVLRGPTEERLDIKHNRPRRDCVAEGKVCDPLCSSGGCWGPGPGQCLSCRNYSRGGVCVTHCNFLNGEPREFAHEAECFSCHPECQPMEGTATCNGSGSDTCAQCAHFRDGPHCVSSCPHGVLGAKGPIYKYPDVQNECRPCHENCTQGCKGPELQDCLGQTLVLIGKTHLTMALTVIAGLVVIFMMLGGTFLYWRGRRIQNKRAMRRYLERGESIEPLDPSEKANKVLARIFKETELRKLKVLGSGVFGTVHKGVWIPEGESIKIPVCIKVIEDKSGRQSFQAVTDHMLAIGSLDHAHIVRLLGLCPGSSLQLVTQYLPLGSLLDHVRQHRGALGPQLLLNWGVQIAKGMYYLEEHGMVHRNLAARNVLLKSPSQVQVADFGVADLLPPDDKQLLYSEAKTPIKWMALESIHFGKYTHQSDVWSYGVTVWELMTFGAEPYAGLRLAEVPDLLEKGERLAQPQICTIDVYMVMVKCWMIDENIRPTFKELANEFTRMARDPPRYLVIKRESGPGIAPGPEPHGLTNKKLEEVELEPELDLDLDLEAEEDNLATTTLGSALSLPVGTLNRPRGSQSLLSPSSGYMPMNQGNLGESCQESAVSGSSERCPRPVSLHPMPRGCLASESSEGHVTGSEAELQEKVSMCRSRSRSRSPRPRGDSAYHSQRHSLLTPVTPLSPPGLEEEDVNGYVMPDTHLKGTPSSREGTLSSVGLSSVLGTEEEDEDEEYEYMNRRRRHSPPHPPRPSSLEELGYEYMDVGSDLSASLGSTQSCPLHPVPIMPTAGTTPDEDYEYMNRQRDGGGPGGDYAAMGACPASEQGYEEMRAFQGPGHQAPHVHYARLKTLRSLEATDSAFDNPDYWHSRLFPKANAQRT

biological target: EPHA2 (UniProt P29317); assay: kinase-Nluc reporter destabilization hit call (1 = scored as downregulated) (binary); higher = compound decreases kinase abundance; settings: K562; 2-18 h

kinase-Nluc reporter destabilization hit call, inactive:
C=CC(=O)N1CCC(c2ccc(C(N)=O)c(-c3ccc(Oc4ccccc4)cc3)n2)CC1 [Orelabrutinib] (2.5 µM) 0
Cc1cc2c(F)c(Oc3ncnn4cc(OC[C@@H](C)OC(=O)[C@H](C)N)c(C)c34)ccc2[nH]1 [Brivanib (alaninate)] (10 µM) 0
CCC(F)(F)c1cc(N2CCC(S(C)(=O)=O)CC2)nc2sc(C(N)=O)c(N)c12 (10 µM) 0
NC(=O)c1c(NC(=O)C2CC2)sc2c1CCCC2 (10 µM) 0
CC(C)=CCC[C@](C)(O[C@@H]1O[C@H](CO[C@@H]2O[C@H](CO)[C@@H](O)[C@H](O)[C@H]2O)[C@@H](O)[C@H](O)[C@H]1O)[C@H]1CC[C@]2(C)[C@@H]1[C@H](O)C[C@@H]1[C@@]3(C)CC[C@H](O[C@@H]4O[C@H](CO)[C@@H](O)[C@H](O)[C@H]4O[C@@H]4O[C@H](CO)[C@@H](O)[C@H](O)[C@H]4O)C(C)(C)[C@@H]3CC[C@]12C [Ginsenoside Rb1] (10 µM) 0
COc1cccc(-c2cc(=O)c3ccccc3o2)c1N (10 µM) 0
C[C@@H]1COC(Nc2ccc3ncnc(Nc4ccc(OCc5nccs5)c(Cl)c4)c3c2)=N1 [Varlitinib] (10 µM) 0
Cc1nc(Nc2cnn(C3CCNCC3)c2)nc2c1N(C)C(=O)c1cc3ccccc3cc1N2C (2.5 µM) 0

Some of these compounds in order of molar mass, falling:
kinase-Nluc reporter destabilization hit call, inactive:
CC(C)=CCC[C@](C)(O[C@@H]1O[C@H](CO[C@@H]2O[C@H](CO)[C@@H](O)[C@H](O)[C@H]2O)[C@@H](O)[C@H](O)[C@H]1O)[C@H]1CC[C@]2(C)[C@@H]1[C@H](O)C[C@@H]1[C@@]3(C)CC[C@H](O[C@@H]4O[C@H](CO)[C@@H](O)[C@H](O)[C@H]4O[C@@H]4O[C@H](CO)[C@@H](O)[C@H](O)[C@H]4O)C(C)(C)[C@@H]3CC[C@]12C [Ginsenoside Rb1] (10 µM) 0
Cc1nc(Nc2cnn(C3CCNCC3)c2)nc2c1N(C)C(=O)c1cc3ccccc3cc1N2C (2.5 µM) 0
C[C@@H]1COC(Nc2ccc3ncnc(Nc4ccc(OCc5nccs5)c(Cl)c4)c3c2)=N1 [Varlitinib] (10 µM) 0
C=CC(=O)N1CCC(c2ccc(C(N)=O)c(-c3ccc(Oc4ccccc4)cc3)n2)CC1 [Orelabrutinib] (2.5 µM) 0

biological target: ERBB3 (UniProt P21860); assay: as above; settings: K562; 2-18 h

kinase-Nluc reporter destabilization hit call, inactive:
O=c1cc(-c2ccc(O[C@@H]3O[C@H](CO)[C@@H](O)[C@H](O)[C@H]3O)cc2)oc2cc(O)c([C@@H]3O[C@H](CO)[C@@H](O)[C@H](O)[C@H]3O[C@@H]3OC[C@H](O)[C@H](O)[C@H]3O)c(O)c12 [Vaccarin] (10 µM) 0
O=CN1CCN(c2ccc(C=C3C(=O)Nc4ccccc43)cc2)CC1 (10 µM) 0
COc1ccc(Cl)cc1N(CC(=O)Nc1ccc2c(c1)OCO2)S(=O)(=O)c1ccccc1 (2.5 µM) 0
CCc1c(C(=O)NNC(=O)[C@H](O)c2cc(F)cc(F)c2)ccc(O)c1C (10 µM) 0
CN(C)CCn1cc2cc(NC(=O)c3cccc(C(F)(F)F)n3)c(C(C)(C)O)cc2n1 (10 µM) 0
CCC[C@H](C)Oc1nc(N)c2[nH]c(=O)n(CCCCCN3CCCCC3)c2n1 (10 µM) 0
CCOC(=O)c1c(C)[nH]c(C=C2C(=O)Nc3ccccc32)c1C (10 µM) 0
Cc1ccc(NC(=O)N2CCN(c3nc(N)nc4sc(-c5cccnc5)nc34)CC2)cc1 [PI4KIII beta inhibitor 3] (10 µM) 0
CS[C@@]1(C(=O)Nc2ccc3[nH]nc(-c4ccc(OC(C)C)nc4)c3c2)CCN(CC(=O)N2CC=C(c3ccc(-c4ncn(C)n4)cc3)CC2)C1 (2.5 µM) 0
O=C(Nc1ccc(Cl)cc1)C1CN(C(=O)c2cccc(-c3ccco3)c2)CC(F)(F)C1 (stereo not drawn) (2.5 µM) 0
Nc1ccc(Sc2nc3ccccc3s2)c(Cl)c1 [KRAS inhibitor-9] (10 µM) 0
Cn1c(N2CCO[C@@H](c3ccc(F)cc3)C2)nc(-c2ccncn2)cc1=O (10 µM) 0
COc1ccc(CN2CCC(c3ccc4nc(C(=O)N5CCN(Cc6ccc(C(F)(F)F)cc6)CC5)[nH]c4c3)CC2)cn1 (2.5 µM) 0
O=C(O)c1c[nH]c2cc(Cl)c(-c3ccc(C4(O)CCC4)cc3)cc12 (10 µM) 0
CC(C)(Oc1ccc(Cl)cc1)C(=O)Nc1ccc(OCc2ccc(C#N)cc2)cc1 [AMPK activator 4] (10 µM) 0
O=C(NCc1ccn[nH]1)c1cc([C@@H]2CCNC[C@H]2COc2ccc3c(c2)OCO3)ccc1F [GRK2-IN-1 (hydrochloride)] (10 µM) 0
Cc1cnc(Cl)nc1-c1ccc(N(Cc2ccc(CNC(=O)C(F)F)cc2)C(=O)c2ccc(O)cc2O)cc1 (10 µM) 0
CC1=C(C#N)C(c2ccc3[nH]nc(C)c3c2)C(C#N)=C(C)N1 (10 µM) 0
CN(C[C@@H]1COCCO1)S(=O)(=O)Nc1ccc2ccc3ncc(-c4cnn(C)c4)cc3c(=O)c2c1 (2.5 µM) 0
CC(=O)Nc1nc(C)c(-c2cc(C)c3c(c2)CN([C@@H](C)C2CC2)C3=O)s1 (10 µM) 0
